# Laboratory results: PubChem BioAssay AID504764 (Drosophila RNAi Screening Center, 2011)
# Test: 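Knock-downs that raise or lower a Notch target reporter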 (primary screen)
# Cells: Drosophila Kc167 cells
# Reagent: long dsRNA against Drosophila genes
# Duration: about 5 days (4 days dsRNA, then 24 h after transfection)
# Conditions: transfection of constitutively active membrane-tethered Notch lacking the extracellular domain, read 24 h later
# Measurement: 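Light from a Notch-responsive E(spl)m3 luciferase reporter under active Notch, with control-promoter and no-Notch reporter wells to normalise; raw counts from paired wells a and b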
# Reading the numbers: induced reporter light, run 1, well a and induced reporter light, run 1, well b: higher = more light from the Notch target reporter with active Notch; control promoter light, run 1, well a and control promoter light, run 1, well b: higher = more light from the viral control promoter (cell number, transfection, viability); uninduced reporter light, run 1, well a: higher = more light from the Notch target reporter without active Notch
# Active means: 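Wells with low control signal or poorly matching duplicates excluded; duplicates averaged; per source plate, z beyond ±2 for induced/control log2 ratio or beyond ±1.8 for induced/uninduced marks a hit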
# Calls: active = modifier hit (raised or lowered Notch signal); inactive = not a hit
# The deposit covers about 22,000 reagents; this is a random part of those that have a named target and a result. Over the whole deposit, 403 (1.9%) got an active call. 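Unnormalised raw counts per well; ratio z-scores behind the hit calls and whether each hit raises or lowers signal are not deposited.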 Reagents against one gene are numbered here. Names joined by + are all predicted targets of the reagent. Not stated in the record: the amount of reagent.
target gene,reagent no.,"induced reporter light, run 1, well a","induced reporter light, run 1, well b","control promoter light, run 1, well a","control promoter light, run 1, well b","uninduced reporter light, run 1, well a",outcome
Grl40a,1,92855,79630,94500,91800,9230,inactive
CG15578,1,1.31e5,1.51e5,2.88e5,2.66e5,11300,inactive
CG33543,1,1.25e5,1.21e5,98100,96570,10160,inactive
CG33543,2,1.15e5,1.11e5,97830,68390,10430,inactive
CG1603,1,1.76e5,1.56e5,1.57e5,1.73e5,12720,inactive
RYa-R,1,1.85e5,1.88e5,2.99e5,2.74e5,16220,inactive
nod,1,70695,96690,80910,73075,5945,inactive
nod,2,2.23e5,1.82e5,2.53e5,2.13e5,14055,inactive
Notum,1,2.30e5,1.60e5,2.12e5,2.45e5,7605,inactive
CG30183,1,1.64e5,1.41e5,1.64e5,1.71e5,12450,inactive
CG30183,2,1.72e5,1.53e5,1.52e5,1.32e5,11845,inactive
Polr2L,1,1.93e5,1.54e5,2.26e5,2.19e5,15130,inactive
grnd,1,1.78e5,1.77e5,1.87e5,1.87e5,17850,inactive
Prim1,1,1.56e5,1.97e5,1.88e5,1.78e5,14350,inactive
Fmo-1,1,1.81e5,1.83e5,1.60e5,1.88e5,15750,inactive
CG4676,1,1.16e5,95400,1.45e5,1.53e5,9990,inactive
moon,1,1.10e5,1.37e5,2.31e5,2.10e5,10035,inactive
oxt,1,63475,62250,1.03e5,95520,4765,inactive
CG18128,1,2.21e5,1.87e5,1.88e5,1.82e5,14100,inactive
CG32987,1,,,,,,active
aay,1,1.21e5,99565,54635,25285,7405,inactive
Cpr65Aw,1,2.47e5,2.46e5,3.13e5,2.65e5,17590,inactive
CG15395,1,1.02e5,1.23e5,88775,52815,8882,inactive
CG12209,1,2.07e5,2.28e5,2.86e5,2.96e5,22570,inactive
CG7409,1,1.86e5,2.18e5,2.66e5,3.13e5,13488,inactive
RpS20,1,29135,25960,35310,37085,2145,inactive
Lipt1,1,1.33e5,1.21e5,1.85e5,1.69e5,10265,inactive
Lipt1,2,51830,54915,73125,74700,4180,inactive
inaC,1,1.23e5,1.04e5,2.27e5,2.56e5,9390,inactive
CG6788,1,89880,77960,95685,85840,10950,inactive
CG30432,1,77940,85090,1.26e5,1.42e5,4925,inactive
CG5707,1,1.26e5,1.36e5,1.99e5,2.37e5,10485,inactive
pnt,1,42285,58945,10282,11680,8420,inactive
Ir51a,1,1.24e5,1.14e5,1.39e5,1.27e5,10210,inactive
Prp39,1,41740,46020,43550,34420,2520,inactive
CG7692,1,1.35e5,1.63e5,2.34e5,1.84e5,7975,inactive
CG13557,1,1.78e5,1.35e5,1.70e5,1.49e5,9345,inactive
Hou,1,1.01e5,84345,82445,54415,9945,inactive
CG7785,1,1.56e5,1.76e5,1.91e5,1.91e5,12538,inactive
NPF,1,2.36e5,2.50e5,2.44e5,2.56e5,19020,inactive
Nmd3,1,1.75e5,1.69e5,3.02e5,2.49e5,13005,inactive
CG7970,1,1.20e5,1.21e5,1.97e5,1.63e5,8855,inactive
CG1764,1,1.54e5,1.32e5,1.90e5,1.62e5,12365,inactive
tkv + CR14033 + tRNA:Asp-GTC-2-1 + 1 more,1,1.12e5,98180,1.87e5,1.56e5,8075,inactive
Polr2A,1,31915,32645,33500,41950,2155,inactive
Brf,1,1.13e5,98090,1.19e5,99025,10750,inactive
Brf,2,1.90e5,2.11e5,1.95e5,1.83e5,20160,inactive
Brf,3,2.20e5,1.60e5,1.60e5,1.56e5,18335,inactive
CG7139,1,1.36e5,1.34e5,68785,86735,9980,inactive
PIG-B,1,1.69e5,1.70e5,1.18e5,61005,12205,inactive
Cad99C,1,1.78e5,1.32e5,2.60e5,2.18e5,13510,inactive
Cad99C,2,1.62e5,2.00e5,2.14e5,2.24e5,13555,inactive
CG4646,1,95820,97955,1.21e5,1.05e5,9340,inactive
CG14630,1,99475,1.10e5,1.68e5,1.80e5,8845,inactive
CG14630,2,1.26e5,1.19e5,1.97e5,2.06e5,8040,inactive
CG12128,1,1.51e5,1.24e5,1.11e5,1.09e5,11675,inactive
CG31323,1,1.60e5,1.77e5,2.25e5,2.11e5,13155,inactive
PolZ1,1,2.23e5,1.49e5,1.49e5,1.36e5,15315,inactive
Mks1,1,43575,40685,36485,35600,3175,active
CG34301,1,1.30e5,2.06e5,1.80e5,1.82e5,14580,inactive
CG4984 + CG4975,1,1.39e5,84355,1.20e5,1.46e5,9645,inactive
CG4984 + CG4975,2,1.07e5,1.27e5,2.06e5,2.25e5,8155,inactive
Wnt10,1,1.57e5,1.53e5,1.70e5,1.56e5,9685,inactive
Wnt10,2,58705,54805,71010,52430,3815,inactive
